Experimental data reported in US6384070B2, “Indole derivatives useful as endothelin receptor antagonists” (Pfizer Inc., priority 1996, dated 2002).
Some entries share one result that the patent states for a list of compounds.

Target: T1, cloned human ETB receptor (Homo sapiens, UniProt P24530)
T1 sequence (P24530 27-442): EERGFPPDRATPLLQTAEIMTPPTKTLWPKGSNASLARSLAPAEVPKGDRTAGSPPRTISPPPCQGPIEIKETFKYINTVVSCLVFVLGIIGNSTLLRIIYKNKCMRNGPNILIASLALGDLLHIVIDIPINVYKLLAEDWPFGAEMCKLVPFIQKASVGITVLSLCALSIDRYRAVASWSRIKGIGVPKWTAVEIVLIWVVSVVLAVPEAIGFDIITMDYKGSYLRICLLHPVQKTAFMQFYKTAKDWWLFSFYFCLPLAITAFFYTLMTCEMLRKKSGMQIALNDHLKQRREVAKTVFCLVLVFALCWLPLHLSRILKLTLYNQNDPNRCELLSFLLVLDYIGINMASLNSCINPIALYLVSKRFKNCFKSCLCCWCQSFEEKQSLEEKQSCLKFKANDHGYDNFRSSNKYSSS
Assay: Test A binding assay: competition with 125I-ET-1, binding to ETB receptors (used for ETA over ETB selectivity)
Settings: ETA versus ETB binding

SMILES | selectivity for ETA receptors over ETB receptors
COc1cc(C)ccc1S(=O)(=O)NC(=O)C(c1ccc2c(c1)OCO2)c1cn(C)c2cc(CO)ccc12 (centres unmarked) [Example 65, 3-{1-(1,3-Benzodioxol-5-yl)-2-[(2-methoxy-4-methylphenyl)sulfonamido]-2-oxoethyl}-6-(hydroxymethyl)-1-methyl-1H-indole] | greater than 100
COCCn1cc(C(C(=O)NS(=O)(=O)c2ccc(C)cc2OC)c2ccc3c(c2)OCO3)c2ccc(C(N)=O)cc21 (centres unmarked) [Example 109, 3-{1-(1,3-benzodioxol-5-yl)-2-[(4-methyl-2-methoxyphenyl)sulfonamido]-2-oxoethyl}-1-(2-methoxyethyl)-1H-6-indolecarboxamide] | greater than 100
